PubChem BioAssay AID1671195 | Yale University – 2021

Test: 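Regulators of LDL receptor activity judged by labelled LDL uptake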 (primary screen)
System: human Huh7 hepatoma cells
Reagents: siRNA pool against human genes, 18 nM
Timing: about 2 to 2.5 days of knockdown, then 8 h LDL uptake
Conditions: DiI-labelled LDL at 30 µg/ml for 8 h, in lipoprotein-deficient serum medium
Detection: 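Per-cell DiI-LDL intensity by automated imaging; well means scaled to the plate median and given as a robust z-score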
Reading the numbers: robust z-score: higher = more LDL uptake after knockdown
Rule for the call: 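Active when two or more replicates show a robust z-score above 2 or below -2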
The whole screen tested about 22,000 reagents; shown is a part drawn at random. Of all reagents, about 1,510 (6.9%) got an active call. 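Active includes knockdowns raising or lowering LDL uptake; positive z-scores mean more uptake, negative mean less.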 Unmarked entries are inactive.

gene knocked down | robust z-score, replicate 1 | robust z-score, replicate 2 | robust z-score, replicate 3
LOC283583 (retired record) | 2.31 (active) | 2.2 | 1.96
LOC388283 (retired record) | -0.191 | 0.529 | 0.345
RASEF (RAS and EF-hand domain containing) | -1.15 | -1.24 | -1.04
PHF5A (PHD finger protein 5A) | -1.08 | -0.584 | -0.268
LOC401234 (retired record) | -1.23 | -0.885 | -0.549
HLCS (holocarboxylase synthetase) | 0.0708 | 1.85 | 1.87
FLII (FLII actin remodeling protein) | -0.67 | -0.607 | -0.724
SPIB (Spi-B transcription factor) | -0.918 | -0.815 | -1.94
SGK2 (serum/glucocorticoid regulated kinase 2) | 0.764 | 0.258 | 0.141
ARL5B (ARF like GTPase 5B) | -0.758 | -0.162 | -0.599
LOC440871 (retired record) | 2.2 | 1.54 | 1.77
MORC2-AS1 (MORC2 antisense RNA 1) | -0.678 | -0.997 | -0.22
LOC401891 (retired record) | -0.19 | 0.44 | 0.584
NFKB1 (nuclear factor kappa B subunit 1) | 0.393 | 0.43 | 0.295
GGT1 (gamma-glutamyltransferase 1) | 0.477 | -0.35 | 0.603
TMEM150A (transmembrane protein 150A) | -0.218 | -0.176 | 0.239
RNASE11 (ribonuclease A family member 11 (inactive)) | 0.258 | 0.248 | -0.414
OR11L1 (olfactory receptor family 11 subfamily L member 1) | 1.03 | 0.994 | 0.927
GATAD2A (GATA zinc finger domain containing 2A) | 0.506 | 0.614 | -0.152
LOC441175 (retired record) | 1.07 | 0.985 | 0.887
TIGD6 (tigger transposable element derived 6) | -0.775 | -0.57 | -0.725
AADACL4 (arylacetamide deacetylase like 4) | 0.0657 | 0.46 | -0.309
IFI27 (interferon alpha inducible protein 27) | 1.29 | 2.78 | 1.23
PPP1R14A (protein phosphatase 1 regulatory inhibitor subunit 14A) | 4.63 (active) | 5.27 | 4.77
RPH3A (rabphilin 3A) | 1.77 | 0.84 | 0.559
HECTD2 (HECT domain E3 ubiquitin protein ligase 2) | -0.958 | -0.561 | -0.0267
CT55 (cancer/testis antigen 55) | 0.907 | 2.07 | 1.21
CA8 (carbonic anhydrase 8 (inactive)) | -0.559 | -0.4 | -0.8
PM20D1 (peptidase M20 domain containing 1) | -0.388 | -0.784 | 0.369
LRRC4 (leucine rich repeat containing 4) | 1.24 | 1 | 0.491
TMEM87B (transmembrane protein 87B) | 1.83 | 1.01 | 2.5
GOLGA8IP (golgin A8 family member I, pseudogene) | 0.619 | -0.0535 | -0.573
CTNS (cystinosin, lysosomal cystine transporter) | -1.83 (active) | -1.93 | -2.31
NT5DC2 (5'-nucleotidase domain containing 2) | 0.773 | 0.193 | -0.0441
LGALS4 (galectin 4) | -0.711 | 0.85 | 0.0431
COPB2 (coat protein complex I subunit beta 2) | -0.764 | -0.825 | -0.08
PHF14 (PHD finger protein 14) | 0.54 | 0.288 | 1.1
TMEM132A (transmembrane protein 132A) | -0.0183 | 0.728 | -0.94
SLC13A4 | -0.634 | -0.862 | -0.363
FAF1 (Fas associated factor 1) | 0.685 | 0.35 | 0.638
LOC388952 (retired record) | -0.549 | -0.76 | -0.698
SPINK13 (serine peptidase inhibitor Kazal type 13) | -0.428 | 0.917 | -0.481
DESI2 (desumoylating isopeptidase 2) | -2.25 | -0.0199 | -0.349
CLEC17A (C-type lectin domain containing 17A) | -0.518 | -0.629 | -0.377
PRAMEF30P (PRAME family member 30, pseudogene) | -0.687 | -0.793 | 0.336
LOC400475 (retired record) | -1.1 | -0.575 | -0.641
LOC441793 (retired record) | -0.395 | -0.503 | -0.835
FREM2 (FRAS1 related extracellular matrix 2) | 0.133 | -0.046 | 0.697
ZNF324 (zinc finger protein 324) | 1.27 | 1.22 | 1.45
LOC440559 (retired record) | -0.305 | -1.14 | -1.18

In a second layout: entries from further up
gene knocked down	robust z-score, replicate 1	robust z-score, replicate 2	robust z-score, replicate 3
LGALS4 (galectin 4)	-0.711	0.85	0.0431
COPB2 (coat protein complex I subunit beta 2)	-0.764	-0.825	-0.08
PHF14 (PHD finger protein 14)	0.54	0.288	1.1
TMEM132A (transmembrane protein 132A)	-0.0183	0.728	-0.94
SLC13A4	-0.634	-0.862	-0.363
FAF1 (Fas associated factor 1)	0.685	0.35	0.638
LOC388952 (retired record)	-0.549	-0.76	-0.698
SPINK13 (serine peptidase inhibitor Kazal type 13)	-0.428	0.917	-0.481
DESI2 (desumoylating isopeptidase 2)	-2.25	-0.0199	-0.349
CLEC17A (C-type lectin domain containing 17A)	-0.518	-0.629	-0.377
PRAMEF30P (PRAME family member 30, pseudogene)	-0.687	-0.793	0.336

Next reagents follow:
gene knocked down | robust z-score, replicate 1 | robust z-score, replicate 2 | robust z-score, replicate 3
ERLIN2 (ER lipid raft associated 2) | -0.36 | -0.244 | -1.43
H3C4 (H3 clustered histone 4) | 1.46 | -0.291 | 0.145
JMJD8 (jumonji domain containing 8) | 0.084 | -0.193 | -0.244
SLC25A51 | 0.834 | 1.36 | 0.913
MYCT1 (MYC target 1) | 0.463 | 0.513 | 0.353
CXXC4 (CXXC finger protein 4) | 1.37 | 1.24 | 1.09
ARLN (allregulin) | -1.44 | -1.39 | -1.27
LSS (lanosterol synthase) | -1.37 | -1.13 | -1.54
FAIM2 (Fas apoptotic inhibitory molecule 2) | 0.244 | 2.4 | -0.291
CLTRN (collectrin, amino acid transport regulator) | -1.07 | -0.568 | -0.636
LINC00701 (long independently transcribed non-coding RNA 701) | 1.01 | -0.41 | -0.864
ZCCHC12 (zinc finger CCHC-type containing 12) | 0.248 | -0.543 | -0.439
EHHADH-AS1 (EHHADH antisense RNA 1) | -0.414 | -0.467 | -0.423
ZNF619 (zinc finger protein 619) | 0.946 | 1.56 | 1.25
LOC402098 (retired record) | 0.327 | -0.0322 | 0.518
LOC389782 (retired record) | -0.282 | -0.478 | -0.965
CNTNAP4 (contactin associated protein family member 4) | -0.625 | -1.16 | -0.09
ANGPTL1 (angiopoietin like 1) | -2.65 (active) | -2.57 | -2
ERI3 (ERI1 exoribonuclease family member 3) | 0.33 | -0.0194 | 0.905
RPS3AP18 (RPS3A pseudogene 18) | -1.04 | -0.688 | -1.02
NEMP1 (nuclear envelope integral membrane protein 1) | -0.575 | -1.25 | -1.43
OLIG3 (oligodendrocyte transcription factor 3) | -0.793 | -0.911 | -0.56
C10orf53 (chromosome 10 open reading frame 53) | 0.275 | 0.612 | 0.564
FLYWCH1 (FLYWCH-type zinc finger 1) | -1.02 | -1.39 | -2.1
ZNF587 (zinc finger protein 587) | -0.266 | 0.144 | -0.363
TNC (tenascin C) | -2 (active) | -1.75 | -2.58
KRTAP20-1 (keratin associated protein 20-1) | 0.496 | 0.274 | 0.278
TUFM (Tu translation elongation factor, mitochondrial) | -0.276 | -0.207 | -0.656
STUM (stum, mechanosensory transduction mediator homolog) | 0.747 | 0.456 | 0.412
STK35 (serine/threonine kinase 35) | 1.56 | -0.367 | 0.821
PPT2 (palmitoyl-protein thioesterase 2) | -1.8 | -1.82 | -1.74
P2RX2 (purinergic receptor P2X 2) | -1.19 | -1.02 | -1.47
GRB7 (growth factor receptor bound protein 7) | -1.31 | -0.434 | -1.58
ANKMY2 (ankyrin repeat and MYND domain containing 2) | -0.192 | -0.463 | -0.646
CSRNP1 (cysteine and serine rich nuclear protein 1) | -1.35 | -2.03 | -1.55
FZD10 (frizzled class receptor 10) | -1.19 | -1.91 | -0.664
MED11 (mediator complex subunit 11) | -0.385 | -0.188 | -0.207
